Measured values reported in PubChem BioAssay AID590 (National Center for Advancing Translational Sciences (NCATS), 2007).
Where “and” joins values, the source holds several entries; their conditions need not be identical. Identical values can stand only once. The campaign covered roughly 59,000 compounds. About 6,500 (11%) were called active. Inconclusive means that the source gave no clear call. Such entries were picked first, then a sample of the others. Cut-off read from the data, not from the text of the source: active = max dye-equivalent concentration above about 10 nM; inconclusive = mostly about 1.1 nM to 9.6 nM; inactive = weaker than that. Peptide text beside a SMILES is read from it.

Assay: qHTS Assay for Spectroscopic Profiling in A350 Spectral Region
Details: Compound autofluorescence, 340/450 nm, Alexa 350 dye-equivalents; stronger effect = higher value
From the text: NIH Molecular Libraries Screening Centers Network [MLSCN]
NIH Chemical Genomics Center [NCGC]
Occasionally, the artifactual effect may originate from the compounds own spectral or other biophysical properties which generally tend to track its assay concentration. Pre-screening/profiling the library with respect to the compounds spectral properties should help one exclude false positives early on. While the most informative fluorescent profiling data set is obtained by performing a full excitation and emission scan of each well by using a monochromator-based plate reader, such an approach is practical only on a very limited scale as scanning each well requires long time. An alternative approach, applied here, is to perform plate reader scans using selected excitation and emission wavelength pairs to generate a multidimensional relational database that correlates compound concentration and the respective relative fluorescence intensity at a given wavelength set. A standard curve of Alexa 350 (A 350) present on each plate as six-point concentration series, was used to compute a normalized fluorescence response, termed dye-equivalent concentration, for each compound at each concentration.
NCGC Assay Protocol Summary:
100 mM Tris buffer, pH 8.0
The wells in columns 1 through 4 of a Kalypsys polypropylene 1536-well compound plate were filled with standard solutions of fluorophore corresponding to the spectral region of interest. Solutions of A 350 were placed in the following wells: I1, J1: 3 mM, I2, J2: 300 uM, I3, J3: 30 uM, I4, J4: zero (DMSO), K1, L1: 3 uM, K2, L2: […], K3, L3: 300 nM, K4, L4: zero (DMSO).
Six uL of buffer were dispensed to 1536-well Greiner black plates. Compounds and dye standards (23 nL) were transferred via Kalypsys PinTool. The plates were incubated for 15 min at room temperature, and then read on ViewLux (Perkin-Elmer) High-throughput CCD imager using 340 nm and 450 nm excitation and emission filter set.
Keywords: NIH Roadmap, MLSCN, MLI, MLSMR, qHTS, NCGC, A350, A-350, Fluorescent Profiling.

Row | SMILES | max dye-equivalent concentration
1 | COc1ccccc1-n1c(O)c(C=Nc2c(C)n(C)n(-c3ccccc3)c2=O)c(=O)[nH]c1=O | inconclusive: 4.7e-09 M
2 | O=c1[nH]c(N2CCN(Cc3ccc4c(c3)OCO4)CC2)nc2c1CCC2 | inconclusive: 1.3e-09 M
3 | CN(C)[C@@H]1C(=O)C(C(N)=O)=C(O)[C@]2(O)C(=O)C3=C(O)c4c(O)ccc(Cl)c4[C@](C)(O)[C@H]3C[C@@H]12 | active: 3.5e-08 M
4 | C=CCN1CCC2(C)c3cc(O)ccc3C[C@H]1[C@H]2C | inconclusive: 2.5e-09 M
5 | C[C@H](N[C@@H](C)CCc1ccccc1)[C@H](O)c1ccc(O)cc1 | inconclusive: 6.3e-09 M
6 | NC(=O)CN1C[C@@H](O)CC1=O | inactive
7 | O=c1[nH]c(=O)n(CCc2ccc(F)cc2)c(O)c1C=NCCCN1CCOCC1 | inconclusive: 2.2e-09 M
8 | CC(C)[C@H]1C(=O)N2CCC[C@@H]2[C@]2(O)O[C@@](NC(=O)[C@H]3C=C4c5cccc6[nH]cc(c56)C[C@H]4N(C)C3)(C(C)C)C(=O)N12 | inconclusive: 1.6e-09 M
9 | CCOC(=O)c1c(-c2ccc(OC)cc2)oc2ccc(OC(=O)N(C)C)cc12 | active: 3.5e-07 M
10 | CCOC(=O)[C@@]1(C#N)[C@@H]2C=CC(C(N)=O)=CN2[C@@H](C(N)=O)[C@@H]1c1cccc(Cl)c1 | inconclusive: 6.4e-09 M
11 | CCCCn1c(O)c(C(C)=NC(C)c2ccccc2)c(=O)[nH]c1=O (configuration not stated) | inconclusive: 1.5e-09 M
12 | CC(C)OCCCNC(=O)c1c(N)n(CC2CCCO2)c2nc3ccccc3nc12 (configuration not stated) | active: 2.7e-06 M
13 | O=[N+]([O-])O[C@H]1CO[C@H]2[C@H]1OC[C@@H]2O[N+](=O)[O-] | active: 3.1e-08 M
14 | O=c1[nH]c2ccccc2c(=O)n1-c1cccc(Cl)c1 | inconclusive: 3e-09 M
15 | CCC(C)N1C(=O)NC(=O)C2(Cc3cc(C)ccc3N(C)C2)C1=O (configuration not stated) | inconclusive: 8.1e-09 M
16 | C=CCN1C(=O)NC(=O)C(Cc2ccc(OC)c(OC)c2)C1=O (configuration not stated) | inconclusive: 2.1e-09 M
17 | Cc1cc(N)n(C2CCN(C)CC2)n1 | inactive
18 | CO[C@H]1[C@H](O)[C@H](O[C@@H]2[C@H](Oc3cccc4c(O)c5c(=O)oc6ccc(C)c7c(=O)oc(c34)c5c67)O[C@@H](C)[C@H](O)[C@H]2O)O[C@@H](C)[C@@H]1O | inconclusive: 9.2e-09 M
19 | O=C(c1ccc2nc3ccc(Cl)cc3c(=O)n2c1)N1CCC2(CC1)OCCO2 | active: 2e-06 M
20 | NCCc1ccc(S(=O)(=O)F)cc1 | inactive
21 | O=c1[nH]c(=O)n(C2CCCCC2)c(O)c1C=NCCCn1ccnc1 | inconclusive: 1.9e-09 M

Row | SMILES | max dye-equivalent concentration
22 | CC1CN=C(Nc2cccc3ccccc23)S1 (configuration not stated) | inconclusive: 1.1e-09 M
23 | O=C(Oc1ccccc1)N1CCC[C@@]2(CCN(Cc3cc(C(F)(F)F)cc(C(F)(F)F)c3)C2)C1 | inactive
24 | O=C(Cc1cccs1)N1CCC2(CC1)OCCO2 | inactive
25 | CCCCSP1(=S)NCCCN1 | inconclusive: 1.2e-09 M
26 | CN1CCC(N2CC3CC(C2)c2cccc(=O)n2C3)CC1 (configuration not stated) | inconclusive: 1.3e-09 M
27 | COC1=C[C@H]2[C@@H]3Cc4ccc(OC)c(O)c4[C@@]2(CCN3C)CC1=O | inconclusive: 6.8e-09 M
28 | CCCN1CC[C@@H]2c3cc(O)ccc3CC[C@H]21 | inconclusive: 4.5e-09 M
29 | C=C(C)[C@@H]1CN[C@H](C(=O)O)[C@H]1CC(=O)O | inactive
30 | CC(C)N(CCC(C(N)=O)(c1ccccc1)c1ccccn1)C(C)C (configuration not stated) | inconclusive: 3.9e-09 M
31 | C[N+]1([O-])[C@@H]2CC(OC(=O)[C@@H](CO)c3ccccc3)C[C@@H]1[C@H]1O[C@H]12 (some centres not stated) | inconclusive: 2.1e-09 M
32 | Cc1ccc2nsnc2c1-n1c(C)nc2ccccc2c1=O | inconclusive: 1.8e-09 M
33 | COc1ccc(OC)c(C2=NOC(C(=O)N3CCC4(CC3)OCCO4)C2)c1 (configuration not stated) | inconclusive: 2.2e-09 M
34 | N[C@@H](Cc1c[nH]c2ccccc12)c1nnc(SCc2ccccc2)o1 | inconclusive: 1.2e-09 M
35 | O=C(Nc1ccc([As](=O)(O)O)cc1)Nc1cccc(Cl)c1Cl | inactive
36 | CC[C@@H]1CN2CCc3cc(OC)c(OC)cc3[C@H]2C[C@@H]1C[C@@H]1NCCc2cc(O)c(OC)cc21 | active: 1.4e-08 M
37 | CC(C)C[C@H](NC(=O)[C@@H]1CCCN1C(=O)[C@@H](N)Cc1ccc(O)cc1)C(=O)NCC(N)=O (H-YPLG-NH2) | inconclusive: 1.1e-09 M
38 | c1ccc2nc(N3CCNCC3)ccc2c1 | active: 4.1e-08 M and active: 2.1e-08 M
39 | Cc1cc(OCc2nn[nH]n2)c2c3c(c(=O)oc2c1)CCC3 | active: 5.7e-08 M
40 | C[C@H](CC(C#N)(c1ccccc1)c1ccccc1)N1CCCCC1 | inactive
41 | O=S(=O)(c1ccccc1)N1CN2CCN(C2)C1 | inconclusive: 1.5e-09 M
42 | O=c1[nH]c(=O)n(C2CCCCCC2)c(O)c1C=NCCCN1CCOCC1 | inconclusive: 2.1e-09 M
